The test system of the data set is T1, PxylOR11/PxylOrco.
T1 construct: full-length ORF, PxylOR11 413 residues, in pT7Ts; cRNA co-injected with PxylOrco cRNA in Xenopus oocytes; heteromer; with Odorant receptor coreceptor
In words: two-electrode voltage clamp, Xenopus oocytes. The class given is cell-based, Plutella xylostella. As to conditions: agonist, 10^-4 M in Ringer's buffer pH 7.6, holding potential -80 mV.

For the compound `OCc1ccccc1` [benzyl alcohol], the “mean inward current at 10^-4 M” value (n = 7) was found to be 975 nA.
Regarding `O=CCc1ccccc1` [phenylacetaldehyde], the “mean inward current at 10^-4 M” value (n = 6) is given as 582 nA.
On to `O=Cc1ccccc1O` [salicylaldehyde], for which the “mean inward current at 10^-4 M” value (n = 6) is 565 nA.
